No constants are given. Whether binding was seen depends on the method and setting. In cells and extracts the contact can be indirect. A yes stands for co-enrichment or nearness to the bait. Other partners may have been found. Tags and fused reporters may be left off the sequences shown.
molecular target: T1, SPL/NZZ-GFP (SPOROCYTELESS/NOZZLE fused to GFP, from pSPL/NZZ::SPL/NZZ:GFP) (Arabidopsis thaliana) (UniProt O81836); experiment: affinity purification with mass spectrometry
T1 sequence: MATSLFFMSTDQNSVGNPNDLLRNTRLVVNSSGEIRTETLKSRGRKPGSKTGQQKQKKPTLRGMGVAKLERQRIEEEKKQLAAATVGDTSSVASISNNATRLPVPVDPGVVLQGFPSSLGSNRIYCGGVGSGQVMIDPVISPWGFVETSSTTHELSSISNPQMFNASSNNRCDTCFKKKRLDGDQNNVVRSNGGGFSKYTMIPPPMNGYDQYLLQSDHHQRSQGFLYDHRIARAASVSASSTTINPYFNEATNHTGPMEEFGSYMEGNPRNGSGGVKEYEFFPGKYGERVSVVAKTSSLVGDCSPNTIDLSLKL

Protein sequences, listed by entry. Tags and fused reporters are not part of them.
UniProt P17839: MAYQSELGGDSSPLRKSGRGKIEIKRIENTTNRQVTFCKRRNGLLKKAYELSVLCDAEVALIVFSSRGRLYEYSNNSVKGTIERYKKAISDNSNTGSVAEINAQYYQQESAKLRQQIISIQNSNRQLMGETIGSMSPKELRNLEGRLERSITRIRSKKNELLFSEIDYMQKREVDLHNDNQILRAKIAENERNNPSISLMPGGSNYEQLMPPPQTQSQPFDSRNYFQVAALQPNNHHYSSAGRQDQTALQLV
UniProt Q9C7G4: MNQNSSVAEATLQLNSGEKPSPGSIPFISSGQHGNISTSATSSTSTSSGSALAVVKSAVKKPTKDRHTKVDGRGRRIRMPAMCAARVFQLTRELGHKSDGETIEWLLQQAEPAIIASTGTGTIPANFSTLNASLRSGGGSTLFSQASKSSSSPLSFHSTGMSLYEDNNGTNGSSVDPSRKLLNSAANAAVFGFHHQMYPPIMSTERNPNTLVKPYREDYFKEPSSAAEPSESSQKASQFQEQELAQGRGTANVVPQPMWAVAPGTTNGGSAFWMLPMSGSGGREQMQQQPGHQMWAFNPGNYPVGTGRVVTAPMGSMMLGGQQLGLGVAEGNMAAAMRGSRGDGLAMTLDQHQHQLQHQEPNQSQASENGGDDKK

binding, binds:
AGAMOUS (AG), endogenous (from UniProt P17839 1-252)
TCP22, endogenous (from UniProt Q9C7G4 1-375)
…1 (SEP1), endogenous (from UniProt P29382 1-251)
…2 (SEP2), endogenous (from UniProt P29384 1-250)
…3 (SEP3), endogenous (from UniProt O22456 1-251)
…OOF2 (SHP2), endogenous (from UniProt P29385 1-246)

— paper doi:10.1101/2025.03.11.641985
